According to publication PMC11148119:
Results are given in words; binding and its absence hold for the method and conditions named. Some binding calls cover weakened binding; strength is not graded here. Tags and fused reporters may be left off the sequences shown.

Target: T1, Full-length rat TRPV2 with a C-terminal 1D4 tag, reconstituted into MSP2N2 nanodiscs (rat), Q9WUD2
T1 chain: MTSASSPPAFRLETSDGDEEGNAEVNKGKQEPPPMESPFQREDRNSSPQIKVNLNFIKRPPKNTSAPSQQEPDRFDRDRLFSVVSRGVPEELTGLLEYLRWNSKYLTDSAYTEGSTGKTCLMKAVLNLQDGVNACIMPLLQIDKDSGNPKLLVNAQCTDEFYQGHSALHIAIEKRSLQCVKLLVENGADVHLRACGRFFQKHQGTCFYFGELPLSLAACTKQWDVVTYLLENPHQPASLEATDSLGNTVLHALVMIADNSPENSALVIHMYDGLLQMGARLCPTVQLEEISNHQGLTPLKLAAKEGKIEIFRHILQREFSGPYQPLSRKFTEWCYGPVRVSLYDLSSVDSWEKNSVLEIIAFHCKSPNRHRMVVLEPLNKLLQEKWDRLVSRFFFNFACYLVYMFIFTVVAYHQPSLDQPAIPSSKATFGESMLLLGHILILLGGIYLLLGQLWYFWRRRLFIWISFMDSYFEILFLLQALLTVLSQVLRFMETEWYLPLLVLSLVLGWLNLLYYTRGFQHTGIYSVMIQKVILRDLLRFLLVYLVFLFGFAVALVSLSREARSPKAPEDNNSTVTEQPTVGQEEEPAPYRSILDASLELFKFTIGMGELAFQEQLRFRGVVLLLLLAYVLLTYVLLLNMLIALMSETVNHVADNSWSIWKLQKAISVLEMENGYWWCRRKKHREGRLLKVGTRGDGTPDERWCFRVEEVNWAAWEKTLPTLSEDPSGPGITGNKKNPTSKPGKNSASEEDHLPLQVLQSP
Test: cryo-EM structure; rTRPV2 in MSP2N2/soy polar lipid nanodiscs; apo dataset at pH 8 (states Apo1, Apo2, Apo3) and dataset with 30 mM sodium acetate at final pH 5.0 (TRPV2_HOAc); grids prepared at 4 °C; maps refined with C4 symmetry; both purified
Settings: remark: other sources report otherwise

binding: binds
B1: Full-length rat TRPV2 with a C-terminal 1D4 tag, reconstituted into MSP2N2 nanodiscs, Q9WUD2 1-761 (natural protein)
chain: MTSASSPPAFRLETSDGDEEGNAEVNKGKQEPPPMESPFQREDRNSSPQIKVNLNFIKRPPKNTSAPSQQEPDRFDRDRLFSVVSRGVPEELTGLLEYLRWNSKYLTDSAYTEGSTGKTCLMKAVLNLQDGVNACIMPLLQIDKDSGNPKLLVNAQCTDEFYQGHSALHIAIEKRSLQCVKLLVENGADVHLRACGRFFQKHQGTCFYFGELPLSLAACTKQWDVVTYLLENPHQPASLEATDSLGNTVLHALVMIADNSPENSALVIHMYDGLLQMGARLCPTVQLEEISNHQGLTPLKLAAKEGKIEIFRHILQREFSGPYQPLSRKFTEWCYGPVRVSLYDLSSVDSWEKNSVLEIIAFHCKSPNRHRMVVLEPLNKLLQEKWDRLVSRFFFNFACYLVYMFIFTVVAYHQPSLDQPAIPSSKATFGESMLLLGHILILLGGIYLLLGQLWYFWRRRLFIWISFMDSYFEILFLLQALLTVLSQVLRFMETEWYLPLLVLSLVLGWLNLLYYTRGFQHTGIYSVMIQKVILRDLLRFLLVYLVFLFGFAVALVSLSREARSPKAPEDNNSTVTEQPTVGQEEEPAPYRSILDASLELFKFTIGMGELAFQEQLRFRGVVLLLLLAYVLLTYVLLLNMLIALMSETVNHVADNSWSIWKLQKAISVLEMENGYWWCRRKKHREGRLLKVGTRGDGTPDERWCFRVEEVNWAAWEKTLPTLSEDPSGPGITGNKKNPTSKPGKNSASEEDHLPLQVLQSP
